## Cleaved PARP after 72 h of treatment

Data from the primary screen of doi:10.1371/journal.pone.0140310, rounded.

Compounds and concentrations:
fingolimod (10 µM): CCCCCCCCc1ccc(CCC(N)(CO)CO)cc1
nutlin-3 (0.5 µM): COc1ccc(C2=N[C@@H](c3ccc(Cl)cc3)[C@@H](c3ccc(Cl)cc3)N2C(=O)N2CCNC(=O)C2)c(OC(C)C)c1
ENMD-2076 (0.2 µM): Cc1cc(Nc2cc(N3CCN(C)CC3)nc(/C=C/c3ccccc3)n2)n[nH]1
VX-702 (2 µM): NC(=O)c1ccc(N(C(N)=O)c2c(F)cccc2F)nc1-c1ccc(F)cc1F
PD173074 (0.5 µM): CCN(CC)CCCCNc1ncc2cc(-c3cc(OC)cc(OC)c3)c(NC(=O)NC(C)(C)C)nc2n1
dasatinib (0.02 µM): Cc1nc(Nc2ncc(C(=O)Nc3c(C)cccc3Cl)s2)cc(N2CCN(CCO)CC2)n1
CP-690550 (5 µM): C[C@@H]1CCN(C(=O)CC#N)C[C@@H]1N(C)c1ncnc2[nH]ccc12
lenalidomide (5 µM): Nc1cccc2c1CN(C1CCC(=O)NC1=O)C2=O (stereo not given)
KU-55933 (5 µM): O=c1cc(-c2cccc3c2Sc2ccccc2S3)oc(N2CCOCC2)c1

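Human melanoma cells were exposed to a pair of drugs for 72 h in 1,536-well plates and read by automated microscopy after fixing and staining. Each value is the cleaved-PARP-positive fraction of nuclei relative to DMSO-treated wells, in %, so that 100 equals the control and higher values mean more apoptosis. Every drug was used at one fixed concentration, the higher of two screened. No replicate spread is given; individual values may be noisy. Basal and induced levels differ widely between cell lines.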
This is part of the screen, not chosen by result.
A dash means that no value is listed here.

| # | Pair | SK-MEL-28 | WM1745 | IST-MEL1 | WM3526 | A2058 | COLO 792 | LOX IMVI | WM115 |
|---|---|---|---|---|---|---|---|---|---|
| 1 | KU-55933 + fingolimod | 968 | - | 572 | 4880 | 3690 | 10300 | 1330 | 396 |
| 2 | ENMD-2076 + VX-702 | 109 | 107 | 175 | 93.0 | 97.2 | 133 | 167 | 282 |
| 3 | PD173074 + VX-702 | 47.8 | - | 119 | 40.4 | 91.0 | 93.0 | 143 | 84.6 |
| 4 | PD173074 + nutlin-3 | 75.6 | - | 59.9 | 174 | 81.2 | 113 | 241 | 71.1 |
| 5 | CP-690550 + VX-702 | 63.0 | 54.7 | 94.7 | 58.2 | 93.7 | 126 | 37.5 | 56.7 |
| 6 | dasatinib + fingolimod | 1230 | 493 | 1080 | 336 | 1680 | 2180 | 55.7 | 5070 |
| 7 | dasatinib + PD173074 | 154 | 206 | 50.6 | 66.8 | 277 | 185 | 290 | 225 |
| 8 | nutlin-3 + KU-55933 | 138 | - | 148 | 379 | 113 | 143 | 119 | 85.5 |
| 9 | KU-55933 + CP-690550 | 178 | 117 | 54.6 | 75.0 | 231 | 132 | 84.2 | 115 |
| 10 | VX-702 + dasatinib | 217 | 262 | 193 | 85.7 | 265 | 160 | 510 | 205 |
| 11 | PD173074 + fingolimod | 293 | - | 221 | 197 | 3370 | 397 | 127 | 428 |
| 12 | lenalidomide + KU-55933 | 157 | 117 | 63.4 | 111 | 109 | 108 | 107 | 87.5 |
| 13 | ENMD-2076 + fingolimod | 2630 | 742 | 752 | 645 | 1180 | 534 | 51.9 | 1210 |
| 14 | nutlin-3 + lenalidomide | 220 | 86.5 | 45.3 | 121 | 41.3 | 87.9 | 171 | 34.3 |
| 15 | nutlin-3 + VX-702 | 97.8 | 101 | 221 | 89.3 | 83.0 | 112 | 192 | 289 |
| 16 | lenalidomide + ENMD-2076 | 104 | 139 | 126 | 93.9 | 122 | 152 | 78.2 | 65.5 |
| 17 | ENMD-2076 + CP-690550 | 37.6 | 109 | 57.2 | 107 | 84.2 | 130 | 177 | 170 |
| 18 | dasatinib + nutlin-3 | 48.4 | 178 | 68.3 | 233 | 209 | 254 | 403 | 526 |
| 19 | ENMD-2076 + PD173074 | 80.1 | - | 106 | 61.5 | 49.4 | 87.6 | 128 | 128 |
| 20 | PD173074 + lenalidomide | 55.4 | 97.8 | 111 | 91.2 | 88.7 | 27.5 | 108 | 45.8 |
| 21 | VX-702 + KU-55933 | 215 | - | 41.9 | 86.7 | 141 | 180 | 102 | 42.6 |

Repeated from the top, 2 entries:

Pair,SK-MEL-28,WM1745,IST-MEL1,WM3526,A2058,COLO 792,LOX IMVI,WM115
KU-55933 + fingolimod,968,-,572,4880,3690,10300,1330,396
ENMD-2076 + VX-702,109,107,175,93.0,97.2,133,167,282